The list shows a part of the results.
What follows are sequences tested against T1, OsSMF1 (Oryza sativa, UniProt Q6ZLB0 1-436) (assay: protein-binding microarray (RPBM); PBS, 2% BSA, 51.3 ng/ul salmon testes DNA, 50 uM zinc acetate, 200 nM TF, 25 C, 1 h; high values mean tight binding). Settings: protein: recombinant; tags: N-terminal polyhistidine and DsRed monomer fusion (pET32a); chain copies: 2; label: CyDye5-dUTP incorporated in the synthesized complementary strand; 3' TTTTT single-stranded linker to array surface; dsDNA, one strand shown.
T1 sequence: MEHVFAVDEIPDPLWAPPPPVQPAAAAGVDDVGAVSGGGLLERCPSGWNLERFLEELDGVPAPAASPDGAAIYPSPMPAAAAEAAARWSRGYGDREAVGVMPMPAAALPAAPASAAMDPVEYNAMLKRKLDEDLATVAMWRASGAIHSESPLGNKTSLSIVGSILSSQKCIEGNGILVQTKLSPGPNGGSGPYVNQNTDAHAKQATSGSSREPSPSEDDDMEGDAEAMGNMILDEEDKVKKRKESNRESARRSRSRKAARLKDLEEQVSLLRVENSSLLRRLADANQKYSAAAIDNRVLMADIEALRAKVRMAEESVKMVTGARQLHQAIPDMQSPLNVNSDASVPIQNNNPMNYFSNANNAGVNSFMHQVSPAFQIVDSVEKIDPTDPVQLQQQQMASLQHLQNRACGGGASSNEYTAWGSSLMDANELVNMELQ
Outline: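 In PBS with 2% BSA, salmon testes DNA and 50 µM zinc acetate, 200 nM protein was incubated on a custom Agilent array at 25 °C for 1 h and then washed off. The array had been made double-stranded by primer extension with Cy5-dUTP and blocked with 2% BSA. The proteins were transcription factors fused N-terminally to polyhistidine and DsRed, expressed in E. coli BL21-CodonPlus and purified on Ni–NTA. The binding signal is per-feature fluorescence intensity (arbitrary units) from an Axon 4000B scanner.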

Row | Sequence | binding signal
1 | TCCTGTTGAACGACGGCGCCAGCCACTCTGGCGCCCCAAACGGAGTCACCTAGTGCAG | 3270 fluorescence intensity (a.u.)
2 | TCTCGTTTGCACTGATTTTGTAAGTTGGGGTCATGTTGTACGGAGTCACCTAGTGCAG | 4050 fluorescence intensity (a.u.)
3 | CTGGCACGTAAGCGTTACCGTGGCATGCCACGTCATCTCACGGAGTCACCTAGTGCAG | 39600 fluorescence intensity (a.u.)
4 | CCCTTGTCCTTTTGTCGCCGTCGACGAGGACGTGCATACTCGGAGTCACCTAGTGCAG | 3520 fluorescence intensity (a.u.)
5 | TGATGGGGTTCGGGCTGCTGACGCGCACCATCTCGTCGGGCGGAGTCACCTAGTGCAG | 7610 fluorescence intensity (a.u.)
6 | TCATTAGCACATGTGGGTTACTGTAGCACTTATGGCTAATCGGAGTCACCTAGTGCAG | 11400 fluorescence intensity (a.u.)
7 | TGTGATCTTCTGTGACGAATTCCTCGTGACGACGGTGCTACGGAGTCACCTAGTGCAG | 4220 fluorescence intensity (a.u.)
8 | TTTGTTGTGATATGATAGGATTAGTTTTCATCTCTATCTTCGGAGTCACCTAGTGCAG | 3290 fluorescence intensity (a.u.)
9 | AAATGTTATGAGTACGATGACACATTAAAACACAGTCATTCGGAGTCACCTAGTGCAG | 4650 fluorescence intensity (a.u.)
10 | ACAAACCAACCAACCCTCCTCGCCGCGGCCGCCGCCACCGCGGAGTCACCTAGTGCAG | 3400 fluorescence intensity (a.u.)
11 | TTCTGATTACGCGGCGAAACCGCTCGCGCCATGGCGGTTGCGGAGTCACCTAGTGCAG | 4380 fluorescence intensity (a.u.)
12 | GTGTCTTGTGGGCATCGCTTTCATCACTGCCCCGTCACGTCGGAGTCACCTAGTGCAG | 8640 fluorescence intensity (a.u.)
13 | CGCCCAGATCGGCGTGGCGGACGGAAACCCTAACCCTATGCGGAGTCACCTAGTGCAG | 3670 fluorescence intensity (a.u.)
14 | TGGAGATCTCACGCGACCATTTGCCGGTGAGGTCGGCTGCCGGAGTCACCTAGTGCAG | 3800 fluorescence intensity (a.u.)
15 | ATGGCCCATATTGCCTGGGAAGGTGACACTATCACAGCGGCGGAGTCACCTAGTGCAG | 4830 fluorescence intensity (a.u.)
16 | ACAAGATGGTCTATCATTTTCGCACATGACACATGTATACCGGAGTCACCTAGTGCAG | 3820 fluorescence intensity (a.u.)
17 | TTGATGTCTTCTTGTTGATTCATGATGTGAGCAATGGTCGCGGAGTCACCTAGTGCAG | 4000 fluorescence intensity (a.u.)
18 | ATACTAAGCAAATACATGATGATGTGGCTATATGTGAAGGCGGAGTCACCTAGTGCAG | 5730 fluorescence intensity (a.u.)
19 | CGTGCCACCATCGGAGAGCCACGCTGGATCCACGTGCCGCCGGAGTCACCTAGTGCAG | 7650 fluorescence intensity (a.u.)
20 | TAGCCATAATCTGCTGTTGCGTCGGCCTCGTCATAGCCGCCGGAGTCACCTAGTGCAG | 5270 fluorescence intensity (a.u.)
21 | TAAAGTTTGACATGCAAAGATGCTACATCATCATCCACGGCGGAGTCACCTAGTGCAG | 5040 fluorescence intensity (a.u.)
22 | GATGCGATCATGCCAAATCTATCCAACGGCTGGTGTATCTCGGAGTCACCTAGTGCAG | 3300 fluorescence intensity (a.u.)
23 | TTAAGCTGCGGCCTGCGGCTTTGACTCGTCCCAATAGGCGCGGAGTCACCTAGTGCAG | 25800 fluorescence intensity (a.u.)
24 | GAGAGCACCGGCGCGGGGTCGGGGAGGGAGAGGTGCGCGACGGAGTCACCTAGTGCAG | 3380 fluorescence intensity (a.u.)
25 | AGGGCTGCGTCAGGGCAGGCGAAGGGTTTGGAATCTAAGGCGGAGTCACCTAGTGCAG | 3830 fluorescence intensity (a.u.)
26 | TTACCAAACCAATACAATCTGTACAATCTTAACTTATGAACGGAGTCACCTAGTGCAG | 3280 fluorescence intensity (a.u.)
27 | CTGATCCACCACAGCACATTGGCCTCTCATGAGATCAGCTCGGAGTCACCTAGTGCAG | 3600 fluorescence intensity (a.u.)

Reprinted from the results shown (twelve entries):
Row | Sequence | binding signal
1 | TCCTGTTGAACGACGGCGCCAGCCACTCTGGCGCCCCAAACGGAGTCACCTAGTGCAG | 3270 fluorescence intensity (a.u.)
2 | TCTCGTTTGCACTGATTTTGTAAGTTGGGGTCATGTTGTACGGAGTCACCTAGTGCAG | 4050 fluorescence intensity (a.u.)
3 | CTGGCACGTAAGCGTTACCGTGGCATGCCACGTCATCTCACGGAGTCACCTAGTGCAG | 39600 fluorescence intensity (a.u.)
4 | CCCTTGTCCTTTTGTCGCCGTCGACGAGGACGTGCATACTCGGAGTCACCTAGTGCAG | 3520 fluorescence intensity (a.u.)
5 | TGATGGGGTTCGGGCTGCTGACGCGCACCATCTCGTCGGGCGGAGTCACCTAGTGCAG | 7610 fluorescence intensity (a.u.)
6 | TCATTAGCACATGTGGGTTACTGTAGCACTTATGGCTAATCGGAGTCACCTAGTGCAG | 11400 fluorescence intensity (a.u.)
7 | TGTGATCTTCTGTGACGAATTCCTCGTGACGACGGTGCTACGGAGTCACCTAGTGCAG | 4220 fluorescence intensity (a.u.)
8 | TTTGTTGTGATATGATAGGATTAGTTTTCATCTCTATCTTCGGAGTCACCTAGTGCAG | 3290 fluorescence intensity (a.u.)
9 | AAATGTTATGAGTACGATGACACATTAAAACACAGTCATTCGGAGTCACCTAGTGCAG | 4650 fluorescence intensity (a.u.)
10 | ACAAACCAACCAACCCTCCTCGCCGCGGCCGCCGCCACCGCGGAGTCACCTAGTGCAG | 3400 fluorescence intensity (a.u.)
11 | TTCTGATTACGCGGCGAAACCGCTCGCGCCATGGCGGTTGCGGAGTCACCTAGTGCAG | 4380 fluorescence intensity (a.u.)
12 | GTGTCTTGTGGGCATCGCTTTCATCACTGCCCCGTCACGTCGGAGTCACCTAGTGCAG | 8640 fluorescence intensity (a.u.)

Remaining list, next part:

Row | Sequence | binding signal
28 | ATACGGCACCATTTACGTGTATATGTGTCGTACATGCATACGGAGTCACCTAGTGCAG | 3470 fluorescence intensity (a.u.)
29 | CCGGTAGAGGCCGGGCCAGCCTGTCTGACGTCACACTAGCCGGAGTCACCTAGTGCAG | 17800 fluorescence intensity (a.u.)
30 | TGAGATTGGAGTGTACCTATCACTGCAACCAACTTTGCTACGGAGTCACCTAGTGCAG | 3350 fluorescence intensity (a.u.)
31 | CCAACGTCAGAGGGGAGCTCCCCGTCAGGTTCCTCCAGGTCGGAGTCACCTAGTGCAG | 4960 fluorescence intensity (a.u.)
32 | CGACGAGTTCCGGCCGGACCGGTTCGCGAACGGCGTGGCGCGGAGTCACCTAGTGCAG | 3960 fluorescence intensity (a.u.)
33 | TTATTTTAGTGCCACGTAAGCGACACGTCGATGCCACATGCGGAGTCACCTAGTGCAG | 23000 fluorescence intensity (a.u.)
34 | CTATATTGTATGTGCGCACGTGTATATAAACATCTGTGTTCGGAGTCACCTAGTGCAG | 9100 fluorescence intensity (a.u.)
35 | TGTAGGTATAAGAGTGAGTTGGTGAATTATAGGGTAGACTCGGAGTCACCTAGTGCAG | 7410 fluorescence intensity (a.u.)
36 | AGAAATAAAGAGTGAGGCCGGGGTGAAGGCCACGTGCGTACGGAGTCACCTAGTGCAG | 3630 fluorescence intensity (a.u.)
37 | GTCGGTCCTTGAACTTGAAGCGTGGTGTCGCTTAGATCCACGGAGTCACCTAGTGCAG | 4620 fluorescence intensity (a.u.)
38 | TATATACTCTCTTCGTTTCAAAATGTTTGACGCCGTTAACCGGAGTCACCTAGTGCAG | 3670 fluorescence intensity (a.u.)
39 | ATTTAAATGACGGTTTCGTCCTACGTGGTACATTGACCCGCGGAGTCACCTAGTGCAG | 10600 fluorescence intensity (a.u.)
40 | TTCTTTGGTCCAACGTAGTGACGCTTGCAGTGTTTACAGTCGGAGTCACCTAGTGCAG | 4410 fluorescence intensity (a.u.)
41 | CCATCCTGCATCCTCCCATGACCACCCGCCACGTCTCGCCCGGAGTCACCTAGTGCAG | 7730 fluorescence intensity (a.u.)
42 | TAAGTGCTACGTCAATGCCACGTGACACGAAAACTTAGTTCGGAGTCACCTAGTGCAG | 13300 fluorescence intensity (a.u.)
43 | CACCAAGACACGCCAGCTTCTTCCTCTTCTCCTCCTCCTTCGGAGTCACCTAGTGCAG | 4370 fluorescence intensity (a.u.)
44 | GTACCAATTTAATTTATGTATCAATAAGAACATATCATGTCGGAGTCACCTAGTGCAG | 4640 fluorescence intensity (a.u.)
45 | AGGCTGGGTTGGTTGCCTAGATGATCGTCATCAGCTAGAACGGAGTCACCTAGTGCAG | 5050 fluorescence intensity (a.u.)
46 | GCAAACAAATACAACCTCACATGTTACACGTAGCAAACCGCGGAGTCACCTAGTGCAG | 5800 fluorescence intensity (a.u.)
47 | CCTAGGTTCACGTGGACGTGGACGTTTACGCGTGTGTTGTCGGAGTCACCTAGTGCAG | 4970 fluorescence intensity (a.u.)
48 | CAGCAGGAGGGGAGGGTGGTGAGTCAGGTGGCAATCCGTGCGGAGTCACCTAGTGCAG | 13900 fluorescence intensity (a.u.)
49 | TCCACAGTTGATGTCACGTAAGATGAAGAACATGTCAGCACGGAGTCACCTAGTGCAG | 5520 fluorescence intensity (a.u.)
50 | CCAACTCACACACACTAAACATATTTACACACGCAGCACACGGAGTCACCTAGTGCAG | 3160 fluorescence intensity (a.u.)
51 | AGAGAATGGATTCAACTTGCACATACTGCTGCTCGTCACACGGAGTCACCTAGTGCAG | 3380 fluorescence intensity (a.u.)
52 | GAAACAAAGGACCGACTCCGCCTATCCATCGTCACGAGCACGGAGTCACCTAGTGCAG | 3760 fluorescence intensity (a.u.)
53 | CTCGGTGATGCAGGTTGGCTCGCAACGCCAACGTGTTGTGCGGAGTCACCTAGTGCAG | 3400 fluorescence intensity (a.u.)
54 | AGTAAGAATATTAAATGTGAGTCATGAGTCAACGGGGTCACGGAGTCACCTAGTGCAG | 7880 fluorescence intensity (a.u.)

Reference: publication PMC7819943, “Rice protein-binding microarrays: a tool to detect cis-acting elements near promoter regions in rice”
